According to US10806804B2, “Compounds having RD targeting motifs and methods of use thereof” (Washington University, priority 2015, dated 2020):
“Also recorded” adds a separate entry of the source. Part of at least one peptide drawing is inferred or uncertain, most often the ends. Positions of bridges follow the written chain, without caps; N, C: chain ends. Non-standard residues stand in square brackets, D forms with d. Residues, ends and D or L forms follow the SMILES beside them. *: point of attachment. Cypate = CC1(C)C(/C=C/C=C/C=C/C=C2/N(CCC(=O)*)c3ccc4ccccc4c3C2(C)C)=[N+](CCC(=O)O)c2ccc3ccccc3c21

Tests used:
[1] = spectral properties for NIR fluorescence imaging; format: physicochemical; conditions: in serum and 20% aq. DMSO solution
[2] = system: 4T1 luc; experiment: in vivo tumor targeting / fluorescence imaging of probes compared with LS301; design: species or system Balb/c; conditions: relative to LS301
Method: FIG. 5 depicts images showing LS838 for fluorescence and nuclear (PET and or SPECT) imaging. 4T1 luc in Balb/c; 100 μl of 50 μM LS838.
FIG. 6 depicts the distribution of LS838 in tissue at 24 hours.
A variety of probes which have similar sequence compared to LS301 were designed and prepared (Table 1). The probes have different peptide sequences, D-, L-amino acid variations or different groups on C-terminus. The sequences of the probes were tested by LC-MS and the spectroscopy properties were recorded. The performances of the tumor targeting abilities were also tested in vivo. […] It was unexpected that LS838 would be brighter relative to LS301 and it is unknown to us why it does. However, the enhanced brightness allows the use of smaller amounts of material to achieve the same uptake kinetics and accumulation as LS301. FIG. 5 depicts the accumulation of LS838 in vivo and FIG. 6 graphically quantifies the intensity of LS838 in various organs. […] LS838 labeled can be labeled with radionuclides such as radio-iodine, bromine, or fluorine for combined optical and nuclear imaging.

[3] = system: PDAC/PanIN lesions; experiment: noninvasive fluorescence molecular tomography (FMT) and ex vivo imaging of pancreatic lesions; format: in vivo, mice
[4] = system: tumor cells; experiment: NIR fluorescence microscopy of uptake and trafficking in cells; format: cell-based
Method: FIG. 8A and FIG. 8B depict uptake of LS838 in 4T1 luc cells showing internalization of the probe in the cells at 1 h (FIG. 8A) and 4 h (FIG. 8B) post incubation. Most cells show localization in the lysosomes at early time points, but the punctate fluorescence became more diffuse at 24 h, indicating translocation to the cytosol. Uptake in the mitochondria was negligible. Color scheme: cyan, Mitotracker; green, lysotracker; and red, LS838. (FIG. 8C) Internalization of LS838 in cells was inhibited by Filipinin, an inhibitor of albumin endocytosis via the gp60 pathway. A similar inhibition was observed when Alexa-680 dye labeled albumin (BSA; blue) was mixed with LS838.
At early time points, LS838 is largely in the lysosomes, but it translocates to the cytosol in a time-dependent manner. Western blot, proteomic analysis, and blocking studies in cells with diverse inhibitors of albumin endocytosis point to albumin-mediated endocytosis (data not shown).
A similar trend is observed in vivo, where preferential uptake in PDAC relative to uninvolved pancreas is […]. […] Permutation of the arginine-aspartic acid sequence results in a loss of PDAC-selective uptake. It has been shown that cypate binds to the hydrophobic pockets of albumin, irrespective of the source (human, murine, or bovine). […] Thus, the primary goal of this study is to determine the role of the peptide in tumor cell internalization or retention. […]
Aggresomes are microtubule-catalyzed aggregates of […] that are used to degrade particularly stable and aggregated proteins. […] It will be evaluated if tumors have a lower ability to form aggresomes because of microtubule dysfunction, leading to prolonged retention in tumor cells compared to normal cells. If LS838 induces aggresome formation in tumor cells, but not fibroblasts will first be determined. […] It will also be determined if aggresomes form in vivo using a literature method. […] Aggresome formation will be determined by staining muscle, skin, and tumors for anti-ubiquitin protein. […]

[5] = system: PDAC tumor cells; experiment: flow cytometry of cell types that take up LS838 in vivo; design: species or system mice
[6] = system: pancreatic lesions; experiment: NIR fluorescence laparoscopy of the pancreas; format: in vivo, mouse
[7] = system: PDAC; experiment: sensitivity and specificity for detecting cancer and neoplasia (planned); format: in vivo, mice; conditions: expected

CC1(C)C(/C=C/C=C/C=C/C=C2/N(CCC(=O)N[C@@H]3CSSC[C@@H](C(=O)N[C@@H](Cc4ccc(O)cc4)C(=O)O)NC(=O)[C@@H]4CCCN4C(=O)[C@H](CO)NC(=O)[C@H](CC(=O)O)NC(=O)[C@H](CCCNC(=N)N)NC(=O)CNC3=O)c3ccc4ccccc4c3C2(C)C)=[N+](CCC(=O)O)c2ccc3ccccc3c21 [LS838, Cypate-Cyclo(DCys-Gly-Arg-Asp-Ser-Pro-Cys)-Tyr-OH] (Cypate-[dC]GRDSPCY-OH; disulfide 1-7)
emission [1]: 810 nm
excitation [1]: 785 nm
molar absorptivity, ε [1]: 240,000 M^−1; cm^−1
brightness after accumulation inside the cancer tumors [2]: better brightness; also recorded: brighter than LS301
fluorescence in chronic and acute pancreatitis models and control orthotopic Matrigel implant ([3]; i.v., ex vivo pancreas): barely detectable
fluorescence intensity change in orthotopically implanted PDAC ([3]; within 2 weeks post-implant vs one week): increased by a factor of two
uptake in the mitochondria ([4]; 4T1 luc cells): negligible
fluorescence uptake in non-tumor cells ([4]; NIR fluorescence microscopy): barely visible
retention in the lysosomes (duration) ([4]; tumor cells): over 24 h
uptake in tumor infiltrating macrophages [5]: Modest uptake
NIR fluorescence of tumor tissues [6]: selectively highlighted tumor tissues
fluorescence in uninvolved pancreas and acute pancreatitis ([6]; 780-nm excitation): below the detection limit
sensitivity for PDAC [7]: > 90%
specificity for PDAC [7]: > 90%
